2 molecules from publication PMC5641635 can be followed below.

The target in one assay is T1, FLAG-tagged SLC25A4/ANT1 (UniProt P12235).
T1 sequence: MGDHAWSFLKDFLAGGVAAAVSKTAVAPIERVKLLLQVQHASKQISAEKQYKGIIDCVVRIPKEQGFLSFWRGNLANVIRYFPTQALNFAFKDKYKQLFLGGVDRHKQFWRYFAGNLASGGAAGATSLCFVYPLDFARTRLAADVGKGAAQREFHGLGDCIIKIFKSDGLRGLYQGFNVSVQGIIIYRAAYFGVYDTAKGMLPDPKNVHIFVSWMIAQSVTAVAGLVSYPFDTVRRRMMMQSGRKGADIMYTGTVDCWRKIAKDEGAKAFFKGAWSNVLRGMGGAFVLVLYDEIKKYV
The assay can be described thus: co-IP; FLAG-ANT1 as bait; 1.5 mg lysate of transfected HEK293 cells in 50 mM Tris HCl, 150 mM NaCl, 1% Triton X100, 1 mM EDTA; anti-FLAG M2 affinity agarose overnight at 4 °C; Western blot for endogenous CDKAL1.

Assay [1] concerns the target T2, FLAG-tagged CDKAL1 truncation mutant containing only the C-terminal residues 477–579 (C) (UniProt Q5VV42).
T2 sequence: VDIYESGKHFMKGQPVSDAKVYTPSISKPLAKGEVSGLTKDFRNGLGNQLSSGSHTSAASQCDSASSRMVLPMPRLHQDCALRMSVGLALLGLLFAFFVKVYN
Nature of the assay: co-IP; FLAG-CDKAL1 wild type, mutant or fragments as bait; 10 mg lysate of transfected HEK293 cells in 50 mM Tris HCl, 150 mM NaCl, 1% Triton X100, 1 mM EDTA; anti-FLAG M2 affinity agarose overnight at 4 °C; immunoblots for MMS19, FAM96B and ANT1.

The target of assay [2] is T3, FLAG-tagged CDKAL1 truncation mutant lacking the C-terminal residues 477–579 (ΔC) (UniProt Q5VV42).
T3 sequence: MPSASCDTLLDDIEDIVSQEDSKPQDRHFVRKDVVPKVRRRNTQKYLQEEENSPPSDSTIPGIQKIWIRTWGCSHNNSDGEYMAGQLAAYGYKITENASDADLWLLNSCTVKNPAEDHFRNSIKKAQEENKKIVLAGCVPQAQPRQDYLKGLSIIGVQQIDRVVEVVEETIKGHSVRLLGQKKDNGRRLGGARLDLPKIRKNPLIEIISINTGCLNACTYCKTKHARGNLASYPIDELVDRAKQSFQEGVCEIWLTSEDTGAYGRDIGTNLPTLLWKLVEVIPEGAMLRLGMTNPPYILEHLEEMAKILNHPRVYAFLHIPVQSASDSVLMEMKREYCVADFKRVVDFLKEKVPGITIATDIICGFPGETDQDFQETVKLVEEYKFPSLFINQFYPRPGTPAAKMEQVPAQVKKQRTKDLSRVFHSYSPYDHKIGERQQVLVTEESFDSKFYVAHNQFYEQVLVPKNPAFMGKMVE
The description is as above.

Assay [3] deals with T4, FLAG-tagged CDKAL1 truncation mutant lacking the N terminal 131 amino acids (ΔN) (UniProt Q5VV42).
T4 sequence: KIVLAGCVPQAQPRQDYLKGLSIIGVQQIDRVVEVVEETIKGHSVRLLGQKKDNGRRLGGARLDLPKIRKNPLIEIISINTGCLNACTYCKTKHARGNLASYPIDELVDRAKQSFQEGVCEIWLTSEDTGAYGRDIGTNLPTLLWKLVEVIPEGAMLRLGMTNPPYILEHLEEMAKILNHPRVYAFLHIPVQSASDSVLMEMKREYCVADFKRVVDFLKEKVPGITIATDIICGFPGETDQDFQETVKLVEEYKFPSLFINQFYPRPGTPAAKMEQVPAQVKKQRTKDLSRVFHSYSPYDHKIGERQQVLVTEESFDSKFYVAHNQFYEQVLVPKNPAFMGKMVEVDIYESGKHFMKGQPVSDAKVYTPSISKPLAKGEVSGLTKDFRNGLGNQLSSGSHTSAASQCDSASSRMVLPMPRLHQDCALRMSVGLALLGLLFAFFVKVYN
The description is as above.

Assay [4] addresses T5, FLAG-tagged wild-type full-length CDKAL1 (UniProt Q5VV42).
T5 sequence: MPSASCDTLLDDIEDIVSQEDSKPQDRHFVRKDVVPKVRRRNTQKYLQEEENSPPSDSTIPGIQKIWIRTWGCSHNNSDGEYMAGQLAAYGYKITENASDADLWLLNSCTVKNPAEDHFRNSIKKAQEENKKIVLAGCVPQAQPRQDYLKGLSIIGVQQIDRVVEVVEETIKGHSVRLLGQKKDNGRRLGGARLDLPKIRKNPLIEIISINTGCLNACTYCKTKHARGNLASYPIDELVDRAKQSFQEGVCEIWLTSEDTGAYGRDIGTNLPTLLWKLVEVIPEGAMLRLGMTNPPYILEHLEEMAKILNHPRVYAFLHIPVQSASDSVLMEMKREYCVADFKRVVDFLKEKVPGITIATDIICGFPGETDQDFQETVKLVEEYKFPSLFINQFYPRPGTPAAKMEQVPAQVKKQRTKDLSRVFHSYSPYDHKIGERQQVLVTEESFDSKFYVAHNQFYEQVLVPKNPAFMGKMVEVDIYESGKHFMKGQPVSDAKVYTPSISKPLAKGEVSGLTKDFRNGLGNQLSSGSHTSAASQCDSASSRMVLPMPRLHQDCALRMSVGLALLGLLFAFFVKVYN
The description is as above.

The target in assay [5] is T6, FLAG-tagged CDKAL1 truncation mutant containing only the N terminal 131 amino acids (N) (UniProt Q5VV42).
T6 sequence: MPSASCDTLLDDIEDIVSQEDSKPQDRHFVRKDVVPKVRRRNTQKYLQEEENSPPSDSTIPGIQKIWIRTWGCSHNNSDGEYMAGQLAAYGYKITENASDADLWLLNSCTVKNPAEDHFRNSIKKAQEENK
The description is as above.

Results are given in words; binding and its absence hold for the method and conditions named. In cells and extracts the contact can be indirect. Some results given as binding are weak or reduced against the parent protein; the word gives no strength. Where a sequence is shown, tags or fusion partners need not be part of it.

B1: endogenous CDKAL1 (protein, UniProt Q5VV42 1-579)
chain: T5 sequence
Consider B1, for which the binding entry in the assay with FLAG-tagged SLC25A4/ANT1 was “binds”.

B2: ANT1/SLC25A4, endogenous (protein, UniProt P12235 1-298)
chain: T1 sequence
As to B2, the binding entry in assay [1] is “binds weakly”; in assay [2] it was “binds”; in assay [3] it was “binds”; in assay [4], “binds”; in assay [5], “binds”.
